In patent US12576083B2, “Combinational therapy of LSD1 inhibitors with P21 activators in the treatment of cancer” (Istituto Europeo di Oncologia S.r.l., priority 2017, dated 2026):
At least one structure is not confirmed: it was looked up by name or label, or the drawing left a doubt.

System: NB4 cells
Experiment: Co-treatment of palbociclib with MC2580 in NB4 cells: proliferation, cell cycle analysis
Assay type: cell-based

In the case of `CC(=O)c1c(C)c2cnc(Nc3ccc(N4CCNCC4)cn3)nc2n(C2CCCC2)c1=O` [Palbociclib, palbociclib], the “sensitization of NB4 cells to LSD1 inhibitor” value is reported as “sensitizes NB4 cells to LSD1 inhibitor”.
